Data set [1] has as its target STAT-1 (endogenous) (mouse (embryonic fibroblasts)) (UniProt P42225). Nature of the data set: EMSA. The settings on record: PARP-1+/+ and PARP-1-/- extracts, binding unaffected; EMSA in buffer D (5 mM HEPES, 10% glycerol, 0.05 mM EDTA, 0.125 mM PMSF), 25 ng poly(dI-dC) (omitted for recombinant Sp1), room temperature 5 min; pH not stated; protein in an extract; label: 5'-32P.

Sequences of proteins named here, by UniProt entry; tags and fusion partners are left off. A change or cut given only in a name is not applied to a line headed by its entry.
UniProt P42225: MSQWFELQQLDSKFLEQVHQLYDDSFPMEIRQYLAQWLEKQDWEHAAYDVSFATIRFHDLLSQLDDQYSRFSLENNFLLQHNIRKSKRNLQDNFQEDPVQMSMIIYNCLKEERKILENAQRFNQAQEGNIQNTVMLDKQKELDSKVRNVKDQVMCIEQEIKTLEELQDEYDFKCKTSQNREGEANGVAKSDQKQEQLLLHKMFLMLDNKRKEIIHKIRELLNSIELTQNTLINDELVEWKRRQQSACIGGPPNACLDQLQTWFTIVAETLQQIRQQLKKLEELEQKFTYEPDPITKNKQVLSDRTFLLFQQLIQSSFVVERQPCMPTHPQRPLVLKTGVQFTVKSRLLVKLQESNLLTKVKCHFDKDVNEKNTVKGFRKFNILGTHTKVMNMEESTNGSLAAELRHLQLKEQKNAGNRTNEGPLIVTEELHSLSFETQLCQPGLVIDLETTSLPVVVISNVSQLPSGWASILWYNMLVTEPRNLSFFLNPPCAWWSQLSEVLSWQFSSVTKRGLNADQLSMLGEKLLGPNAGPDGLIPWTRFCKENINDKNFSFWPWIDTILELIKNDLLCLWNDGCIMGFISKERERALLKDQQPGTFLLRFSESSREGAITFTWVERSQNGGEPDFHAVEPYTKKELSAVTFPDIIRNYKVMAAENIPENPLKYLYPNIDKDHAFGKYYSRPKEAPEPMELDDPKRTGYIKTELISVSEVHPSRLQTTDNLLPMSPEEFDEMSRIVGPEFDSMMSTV
UniProt P08047: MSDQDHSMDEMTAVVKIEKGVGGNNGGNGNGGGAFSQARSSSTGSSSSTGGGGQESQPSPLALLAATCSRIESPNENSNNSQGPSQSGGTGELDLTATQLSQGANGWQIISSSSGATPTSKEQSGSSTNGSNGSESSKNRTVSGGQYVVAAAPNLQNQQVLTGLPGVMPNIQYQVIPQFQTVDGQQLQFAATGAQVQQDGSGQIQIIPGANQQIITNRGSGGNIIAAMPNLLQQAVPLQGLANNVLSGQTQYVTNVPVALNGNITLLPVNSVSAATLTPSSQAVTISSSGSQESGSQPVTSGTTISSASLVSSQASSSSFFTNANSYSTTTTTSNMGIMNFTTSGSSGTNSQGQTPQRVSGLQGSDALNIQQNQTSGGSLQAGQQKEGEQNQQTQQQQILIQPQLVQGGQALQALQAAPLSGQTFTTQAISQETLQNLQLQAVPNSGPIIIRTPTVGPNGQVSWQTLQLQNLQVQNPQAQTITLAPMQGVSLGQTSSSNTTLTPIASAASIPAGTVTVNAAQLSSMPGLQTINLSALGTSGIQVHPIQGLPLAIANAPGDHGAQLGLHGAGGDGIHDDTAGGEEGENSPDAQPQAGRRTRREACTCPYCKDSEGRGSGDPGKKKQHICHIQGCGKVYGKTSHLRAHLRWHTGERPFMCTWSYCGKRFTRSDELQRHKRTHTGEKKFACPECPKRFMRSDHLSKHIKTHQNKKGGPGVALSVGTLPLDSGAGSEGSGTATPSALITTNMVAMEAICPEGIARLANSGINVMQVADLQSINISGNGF
UniProt O89090, whole entry: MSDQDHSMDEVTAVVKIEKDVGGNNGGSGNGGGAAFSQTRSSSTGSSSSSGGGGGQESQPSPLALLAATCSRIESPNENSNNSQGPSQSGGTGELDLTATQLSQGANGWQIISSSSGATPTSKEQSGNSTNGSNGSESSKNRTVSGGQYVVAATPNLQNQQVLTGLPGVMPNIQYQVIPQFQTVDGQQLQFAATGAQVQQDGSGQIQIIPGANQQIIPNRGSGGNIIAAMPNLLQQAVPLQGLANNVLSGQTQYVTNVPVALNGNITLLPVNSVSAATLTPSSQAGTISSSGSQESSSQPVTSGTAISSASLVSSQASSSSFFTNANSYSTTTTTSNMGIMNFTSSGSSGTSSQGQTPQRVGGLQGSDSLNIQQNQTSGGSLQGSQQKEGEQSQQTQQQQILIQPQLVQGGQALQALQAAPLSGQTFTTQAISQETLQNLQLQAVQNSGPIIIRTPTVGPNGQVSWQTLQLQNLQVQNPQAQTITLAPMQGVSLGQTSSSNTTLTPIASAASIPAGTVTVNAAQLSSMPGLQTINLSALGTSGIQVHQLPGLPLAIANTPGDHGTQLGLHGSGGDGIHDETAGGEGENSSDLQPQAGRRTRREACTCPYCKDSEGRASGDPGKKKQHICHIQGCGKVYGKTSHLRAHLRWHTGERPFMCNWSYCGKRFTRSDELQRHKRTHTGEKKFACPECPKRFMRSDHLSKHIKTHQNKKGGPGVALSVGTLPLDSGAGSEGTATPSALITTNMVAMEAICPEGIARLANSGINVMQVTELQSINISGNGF
UniProt O70494: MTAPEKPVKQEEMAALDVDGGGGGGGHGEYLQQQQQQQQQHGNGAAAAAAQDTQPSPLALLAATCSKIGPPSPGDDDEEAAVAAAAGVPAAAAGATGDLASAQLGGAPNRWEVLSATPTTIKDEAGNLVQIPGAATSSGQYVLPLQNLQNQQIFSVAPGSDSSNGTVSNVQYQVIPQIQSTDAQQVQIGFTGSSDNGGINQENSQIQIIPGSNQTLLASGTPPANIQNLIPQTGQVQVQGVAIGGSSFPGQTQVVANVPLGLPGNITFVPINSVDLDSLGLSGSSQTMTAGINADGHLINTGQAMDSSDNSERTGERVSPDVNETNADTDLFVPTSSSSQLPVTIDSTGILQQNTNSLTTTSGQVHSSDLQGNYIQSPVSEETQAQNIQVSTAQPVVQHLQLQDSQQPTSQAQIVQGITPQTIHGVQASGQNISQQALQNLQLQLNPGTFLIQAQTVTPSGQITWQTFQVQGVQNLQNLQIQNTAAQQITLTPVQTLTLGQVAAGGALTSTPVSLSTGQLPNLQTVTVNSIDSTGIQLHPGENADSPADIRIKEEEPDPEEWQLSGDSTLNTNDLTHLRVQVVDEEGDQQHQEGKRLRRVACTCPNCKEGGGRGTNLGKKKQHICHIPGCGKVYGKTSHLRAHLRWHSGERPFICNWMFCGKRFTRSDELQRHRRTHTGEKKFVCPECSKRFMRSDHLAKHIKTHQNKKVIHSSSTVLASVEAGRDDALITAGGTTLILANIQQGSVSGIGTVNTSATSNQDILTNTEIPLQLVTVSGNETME
UniProt P05627, whole entry: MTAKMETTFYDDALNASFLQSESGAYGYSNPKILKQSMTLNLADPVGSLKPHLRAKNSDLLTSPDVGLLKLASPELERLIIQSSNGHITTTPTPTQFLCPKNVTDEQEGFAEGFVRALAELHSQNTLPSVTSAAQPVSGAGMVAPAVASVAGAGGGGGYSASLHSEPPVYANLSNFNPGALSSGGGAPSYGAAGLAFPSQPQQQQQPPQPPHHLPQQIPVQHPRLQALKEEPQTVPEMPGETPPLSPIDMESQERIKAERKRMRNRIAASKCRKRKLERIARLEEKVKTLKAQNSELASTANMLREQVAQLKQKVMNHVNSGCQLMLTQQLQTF
UniProt Q61501: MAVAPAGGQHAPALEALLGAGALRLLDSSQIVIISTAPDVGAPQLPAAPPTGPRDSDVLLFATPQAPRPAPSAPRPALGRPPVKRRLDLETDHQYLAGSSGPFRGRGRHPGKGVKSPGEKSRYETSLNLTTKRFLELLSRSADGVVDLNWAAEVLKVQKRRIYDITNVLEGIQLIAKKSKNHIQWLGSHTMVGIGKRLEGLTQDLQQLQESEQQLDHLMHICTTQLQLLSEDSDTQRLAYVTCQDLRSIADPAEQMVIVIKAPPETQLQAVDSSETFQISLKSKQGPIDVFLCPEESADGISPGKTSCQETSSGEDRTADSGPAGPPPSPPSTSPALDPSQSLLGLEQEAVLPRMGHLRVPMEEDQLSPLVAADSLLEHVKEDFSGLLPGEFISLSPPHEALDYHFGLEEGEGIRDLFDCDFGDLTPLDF

Data set [2] concerns the target GST-Sp1-8xHis (UniProt P08047). The data set is described as follows: EMSA. The settings on record: EMSA in buffer D (5 mM HEPES, 10% glycerol, 0.05 mM EDTA, 0.125 mM PMSF), 25 ng poly(dI-dC) (omitted for recombinant Sp1), room temperature 5 min, pH not stated, recombinant protein, protein details: GST (N-term), 8xHis (C-term), label: 5'-32P (probe), unlabeled as competitor. (In general: In EMSA bound probe runs differently from free probe, usually more slowly.)

In data set [3] the target is Sp1 (endogenous) (UniProt O89090). Nature of the data set: EMSA. The settings on record: EMSA in buffer D (5 mM HEPES, 10% glycerol, 0.05 mM EDTA, 0.125 mM PMSF), 25 ng poly(dI-dC) (omitted for recombinant Sp1), room temperature 5 min, pH not stated, protein in an extract, label: 5'-32P (probe), unlabeled as competitor.
Data set [4] has the same target. The data set is described as follows: EMSA supershift. The settings on record: PARP-1+/+ extract, complex reduced in PARP-1-/- extract because of lower Sp1 expression; EMSA in buffer D (5 mM HEPES, 10% glycerol, 0.05 mM EDTA, 0.125 mM PMSF), 25 ng poly(dI-dC) (omitted for recombinant Sp1), room temperature 5 min; pH not stated; protein in an extract; label: 5'-32P (probe), unlabeled as competitor.

Data set [5] has as its target Sp3 (endogenous) (UniProt O70494). Nature of the data set: EMSA supershift. The settings on record: PARP-1+/+ and PARP-1-/- extracts; EMSA in buffer D (5 mM HEPES, 10% glycerol, 0.05 mM EDTA, 0.125 mM PMSF), 25 ng poly(dI-dC) (omitted for recombinant Sp1), room temperature 5 min; pH not stated; protein in an extract; label: 5'-32P (probe), unlabeled as competitor.
Data set [6] addresses Sp1 (endogenous) (UniProt O89090). The data set is described as follows: competition with a labelled probe. The settings on record: EMSA in buffer D (5 mM HEPES, 10% glycerol, 0.05 mM EDTA, 0.125 mM PMSF), 25 ng poly(dI-dC) (omitted for recombinant Sp1), room temperature 5 min, pH not stated, protein in an extract, label: 5'-32P (probe), unlabeled as competitor.
Data set [7] concerns the target AP-1 (c-jun containing) (mouse (embryonic fibroblasts)) (UniProt P05627). Nature of the data set: EMSA. Particulars: PARP-1+/+ extract, abolished in PARP-1-/- extract, which lacks c-jun; EMSA in buffer D (5 mM HEPES, 10% glycerol, 0.05 mM EDTA, 0.125 mM PMSF), 25 ng poly(dI-dC) (omitted for recombinant Sp1), room temperature 5 min; pH not stated; protein in an extract; label: 5'-32P.

Data set [8] concerns the target E2F1 (endogenous) (mouse (embryonic fibroblasts)) (UniProt Q61501). Nature of the data set: EMSA. The settings on record: PARP-1+/+ and PARP-1-/- extracts, binding unaffected; EMSA in buffer D (5 mM HEPES, 10% glycerol, 0.05 mM EDTA, 0.125 mM PMSF), 25 ng poly(dI-dC) (omitted for recombinant Sp1), room temperature 5 min; pH not stated; protein in an extract; label: 5'-32P.

For at least one entry, the source does not settle the construct or the ends of the probe. For some assays here: Where cells or extracts were used, other partners may take part. For some assays here: Negatives hold for the conditions tested. For some assays here: A weaker result is weaker than the reference pair of the same experiment.

Take “AAGGCGGAGGTTTCCGGGAAAGCAGCACC (double strand) [STAT-1 oligonucleotide]”: the binding result in data set [1] is on record as “binds”.
Regarding “GATCATATCTGCGGGGCGGGGCAGACACAG (double strand) [Sp1 oligonucleotide]”, the binding result in data set [2] (NAD+ and nicked DNA, no PARP-1) is listed as “binds”; in data set [2] (PARP-1 + NAD+ + PJ34 (binding entirely restored)), “binds”; in data set [3] (extract of H2O2-treated PARP-1+/+ cells, Sp1 protein level unchanged), “binds more weakly”; in data set [3] (extract of PARP-1+/+ cells treated with PJ34 + H2O2) it was “binds”; in data set [4], “binds”; in data set [5], “binds”. Further, in data set [6] (unlabeled, 100-fold excess competes entirely), the binding result is listed as “binds”.
Consider “GATCTTATTTTGGATTGAAGCCAATATGAG (double strand) [NFI oligonucleotide]”, for which the binding result in data set [6] (unlabeled NFI oligo, 100- and 500-fold, does not compete with the Sp1 probe) is reported as “no binding”.
As to “GATCCCCGCGTTGAGTCATTCGCCTC (double strand) [AP-1 oligonucleotide]”, the binding result in data set [7] is recorded as “binds”.
For “CAGAGCCGGCGGGAAAGGTGCGGGCGGTGC (double strand) [E2F1 oligonucleotide]”, the binding result in data set [8] is “binds”.

Values taken from article PMC2175517.
